In article PMC6154322, “Anti-Trypanosomatid Elemanolide Sesquiterpene Lactones from Vernonia lasiopus O. Hoffm ^†” (Molecules : A Journal of Synthetic Chemistry and Natural …, 2017) one finds IC50 data, which are given here for one compound.

Converted amounts (≈) assume the structure as drawn.

The assay concerns T. cruzi (amastigotes, Tulahuen C4 strain). The experiment in a line: In vitro activity against T. cruzi amastigotes (Tulahuen C4). In kind it is cell-based. The following applies: Trypanosoma cruzi, Table 1, only one replicate, read-out: IC50 Tcr (crude extracts).

Consider `O=C(Cn1ccnc1[N+](=O)[O-])NCc1ccccc1` [benznidazole], for which the IC50 turned out to be 0.382 µg/mL (≈ 1.47 µM).
